Results from the supplement of paper PMC4604168 (melanoma cell lines).
This is one part of the list. Single values are uncertain, as repeats are few or missing.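 Cells were imaged in 1,536-well plates, and nuclei stained with an antibody against cleaved PARP were counted against all DNA-stained nuclei to give the apoptosis fraction. Screening doses were chosen to leave most cells alive, and resting and induced cleaved-PARP levels differ strongly between cell lines.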

Columns and labels:
Assay in all cases: cleaved PARP positive nuclei fraction relative to DMSO control; melanoma cells; higher = more apoptosis
Settings in all cases: library dose: low library concentration; 72 h
501Mel = tested on: 501Mel
A101D = tested on: A101D
A2058 = tested on: A2058
A375 = tested on: A375
C32 = tested on: C32
CBRC008 = tested on: CBRC008 (line from a melanoma biopsy)
CBRC013 = tested on: CBRC013 (line from a melanoma biopsy)
CBRC014 = tested on: CBRC014 (line from a melanoma biopsy)
CBRC016 = tested on: CBRC016 (line from a melanoma biopsy)
CBRC017 = tested on: CBRC017 (line from a melanoma biopsy)

## N.N.[Cl][Pt][Cl] [cisplatin] + CC1(C)NC(=O)N(c2ccc([N+](=O)[O-])c(C(F)(F)F)c2)C1=O [nilutamide] (first compound 1.6 µM, partner dose 1 µM)
501Mel
  cleaved PARP positive nuclei fraction: 171%
A101D
  cleaved PARP positive nuclei fraction: 188%
A2058
  cleaved PARP positive nuclei fraction: 136%
A375
  cleaved PARP positive nuclei fraction: 150%
C32
  cleaved PARP positive nuclei fraction: 130%
CBRC008
  cleaved PARP positive nuclei fraction: 336%
CBRC013
  cleaved PARP positive nuclei fraction: 86.2%
CBRC014
  cleaved PARP positive nuclei fraction: 106%
CBRC016
  cleaved PARP positive nuclei fraction: 48.8%
CBRC017
  cleaved PARP positive nuclei fraction: 126%

## C[C@@H](N)c1ccc(C(=O)Nc2ccnc3[nH]ccc23)cc1 + C[As](C)SC[C@H](NC(=O)CC[C@H](N)C(=O)O)C(=O)NCC(=O)O [Darinaparsin] (first compound 0.4 µM, partner dose 0.4 µM)
501Mel
  cleaved PARP positive nuclei fraction: 76.8%
A101D
  cleaved PARP positive nuclei fraction: 102%
A2058
  cleaved PARP positive nuclei fraction: 229%
A375
  cleaved PARP positive nuclei fraction: 159%
C32
  cleaved PARP positive nuclei fraction: 80.2%
CBRC008
  cleaved PARP positive nuclei fraction: 26.7%
CBRC014
  cleaved PARP positive nuclei fraction: 136%
CBRC016
  cleaved PARP positive nuclei fraction: 128%
CBRC017
  cleaved PARP positive nuclei fraction: 105%

## C[C@]12O[C@H](C[C@]1(O)CO)n1c3ccccc3c3c4c(c5c6ccccc6n2c5c31)CNC4=O [Lestaurtinib] + COc1cc2c(Oc3ccc4[nH]c(C)cc4c3F)ncnc2cc1OCCCN1CCCC1 [cediranib] (first compound 0.004 µM, partner dose 0.4 µM)
501Mel
  cleaved PARP positive nuclei fraction: 170%
A101D
  cleaved PARP positive nuclei fraction: 73.2%
A2058
  cleaved PARP positive nuclei fraction: 65.8%
A375
  cleaved PARP positive nuclei fraction: 59.6%
C32
  cleaved PARP positive nuclei fraction: 85.5%
CBRC008
  cleaved PARP positive nuclei fraction: 32%
CBRC013
  cleaved PARP positive nuclei fraction: 126%
CBRC014
  cleaved PARP positive nuclei fraction: 46.9%
CBRC016
  cleaved PARP positive nuclei fraction: 132%
CBRC017
  cleaved PARP positive nuclei fraction: 144%

## C[C@]12O[C@H](C[C@]1(O)CO)n1c3ccccc3c3c4c(c5c6ccccc6n2c5c31)CNC4=O [Lestaurtinib] + O=C(Nc1cccc(Cl)c1)Nc1ncc(CCNc2ncnc3ccsc23)s1 [SNS314] (first compound 0.004 µM, partner dose 0.0008 µM)
501Mel
  cleaved PARP positive nuclei fraction: 99.7%
A101D
  cleaved PARP positive nuclei fraction: 55.9%
A2058
  cleaved PARP positive nuclei fraction: 45.1%
A375
  cleaved PARP positive nuclei fraction: 132%
C32
  cleaved PARP positive nuclei fraction: 95.8%
CBRC008
  cleaved PARP positive nuclei fraction: 31.2%
CBRC013
  cleaved PARP positive nuclei fraction: 117%
CBRC014
  cleaved PARP positive nuclei fraction: 71.5%
CBRC016
  cleaved PARP positive nuclei fraction: 44.8%
CBRC017
  cleaved PARP positive nuclei fraction: 88.2%

## C[C@]12O[C@H](C[C@]1(O)CO)n1c3ccccc3c3c4c(c5c6ccccc6n2c5c31)CNC4=O [Lestaurtinib] + Clc1ccc(Nc2nnc(Cc3ccncc3)c3ccccc23)cc1 [vatalanib] (first compound 0.004 µM, partner dose 2 µM)
501Mel
  cleaved PARP positive nuclei fraction: 189%
A101D
  cleaved PARP positive nuclei fraction: 95.7%
A2058
  cleaved PARP positive nuclei fraction: 114%
A375
  cleaved PARP positive nuclei fraction: 129%
C32
  cleaved PARP positive nuclei fraction: 69.6%
CBRC008
  cleaved PARP positive nuclei fraction: 65.5%
CBRC014
  cleaved PARP positive nuclei fraction: 98.3%
CBRC016
  cleaved PARP positive nuclei fraction: 143%
CBRC017
  cleaved PARP positive nuclei fraction: 93.3%

## C[As](C)SC[C@H](NC(=O)CC[C@H](N)C(=O)O)C(=O)NCC(=O)O [Darinaparsin] + C=CCn1c(=O)c2cnc(Nc3ccc(N4CCN(C)CC4)cc3)nc2n1-c1cccc(C(C)(C)O)n1 [MK1775] (first compound 0.4 µM, partner dose 0.02 µM)
501Mel
  cleaved PARP positive nuclei fraction: 96.3%
A101D
  cleaved PARP positive nuclei fraction: 60.7%
A2058
  cleaved PARP positive nuclei fraction: 33.9%
A375
  cleaved PARP positive nuclei fraction: 673%
C32
  cleaved PARP positive nuclei fraction: 62.2%
CBRC008
  cleaved PARP positive nuclei fraction: 47.5%
CBRC013
  cleaved PARP positive nuclei fraction: 99.6%
CBRC014
  cleaved PARP positive nuclei fraction: 87.2%
CBRC016
  cleaved PARP positive nuclei fraction: 112%
CBRC017
  cleaved PARP positive nuclei fraction: 93.2%

## COc1cc([C@@H]2c3cc4c(cc3[C@@H](O[C@@H]3O[C@@H]5CO[C@@H](C)O[C@H]5[C@H](O)[C@H]3O)[C@H]3COC(=O)[C@H]23)OCO4)cc(OC)c1O [etoposide] + N.N.[Cl][Pt][Cl] [cisplatin] (first compound 0.02 µM, partner dose 1.6 µM)
501Mel
  cleaved PARP positive nuclei fraction: 144%
A101D
  cleaved PARP positive nuclei fraction: 94.5%
A2058
  cleaved PARP positive nuclei fraction: 190%
A375
  cleaved PARP positive nuclei fraction: 268%
C32
  cleaved PARP positive nuclei fraction: 89.4%
CBRC008
  cleaved PARP positive nuclei fraction: 105%
CBRC014
  cleaved PARP positive nuclei fraction: 131%
CBRC016
  cleaved PARP positive nuclei fraction: 119%

## C[C@]12O[C@H](C[C@]1(O)CO)n1c3ccccc3c3c4c(c5c6ccccc6n2c5c31)CNC4=O [Lestaurtinib] + Cc1cc(N2CCOCC2)cc2[nH]c(-c3c(NC[C@@H](O)c4cccc(Cl)c4)cc[nH]c3=O)nc12 [BMS536924] (first compound 0.004 µM, partner dose 0.2 µM)
501Mel
  cleaved PARP positive nuclei fraction: 183%
A101D
  cleaved PARP positive nuclei fraction: 36.1%
A2058
  cleaved PARP positive nuclei fraction: 90.7%
A375
  cleaved PARP positive nuclei fraction: 280%
C32
  cleaved PARP positive nuclei fraction: 135%
CBRC008
  cleaved PARP positive nuclei fraction: 739%
CBRC013
  cleaved PARP positive nuclei fraction: 111%
CBRC014
  cleaved PARP positive nuclei fraction: 89.9%
CBRC016
  cleaved PARP positive nuclei fraction: 45.7%
CBRC017
  cleaved PARP positive nuclei fraction: 75.2%

## C[As](C)SC[C@H](NC(=O)CC[C@H](N)C(=O)O)C(=O)NCC(=O)O [Darinaparsin] + NCC(=O)Nc1ccc(-n2nc(C(F)(F)F)cc2-c2ccc3c(ccc4ccccc43)c2)cc1 [OSU03012] (first compound 0.4 µM, partner dose 1 µM)
501Mel
  cleaved PARP positive nuclei fraction: 355%
A101D
  cleaved PARP positive nuclei fraction: 78.6%
A2058
  cleaved PARP positive nuclei fraction: 57.8%
A375
  cleaved PARP positive nuclei fraction: 5400%
C32
  cleaved PARP positive nuclei fraction: 43.2%
CBRC008
  cleaved PARP positive nuclei fraction: 70.5%
CBRC013
  cleaved PARP positive nuclei fraction: 129%
CBRC014
  cleaved PARP positive nuclei fraction: 95.8%
CBRC016
  cleaved PARP positive nuclei fraction: 82.5%
CBRC017
  cleaved PARP positive nuclei fraction: 87.7%

## N.N.[Cl][Pt][Cl] [cisplatin] + Cn1cncc1[C@@](N)(c1ccc(Cl)cc1)c1ccc2c(c1)c(-c1cccc(Cl)c1)cc(=O)n2C [tipifarnib] (first compound 1.6 µM, partner dose 0.01 µM)
501Mel
  cleaved PARP positive nuclei fraction: 78.5%
A101D
  cleaved PARP positive nuclei fraction: 288%
A2058
  cleaved PARP positive nuclei fraction: 68%
A375
  cleaved PARP positive nuclei fraction: 56.4%
C32
  cleaved PARP positive nuclei fraction: 159%
CBRC008
  cleaved PARP positive nuclei fraction: 110%
CBRC013
  cleaved PARP positive nuclei fraction: 107%
CBRC014
  cleaved PARP positive nuclei fraction: 128%
CBRC016
  cleaved PARP positive nuclei fraction: 68.8%
CBRC017
  cleaved PARP positive nuclei fraction: 123%

## N.N.[Cl][Pt][Cl] [cisplatin] + O=C(Nc1cccc(Cl)c1)Nc1ncc(CCNc2ncnc3ccsc23)s1 [SNS314] (first compound 1.6 µM, partner dose 0.0008 µM)
501Mel
  cleaved PARP positive nuclei fraction: 48.3%
A101D
  cleaved PARP positive nuclei fraction: 78.5%
A2058
  cleaved PARP positive nuclei fraction: 72.6%
A375
  cleaved PARP positive nuclei fraction: 193%
C32
  cleaved PARP positive nuclei fraction: 178%
CBRC008
  cleaved PARP positive nuclei fraction: 219%
CBRC013
  cleaved PARP positive nuclei fraction: 88.3%
CBRC014
  cleaved PARP positive nuclei fraction: 89.5%
CBRC016
  cleaved PARP positive nuclei fraction: 63.1%
CBRC017
  cleaved PARP positive nuclei fraction: 112%
